Reference: PubChem BioAssay AID504834 (National Center for Advancing Translational Sciences (NCATS), 2011)
Out of some 320,000 compounds screened, about 22,000 (6.9%) were called active. This list was built around the results that the source calls inconclusive (neither active nor inactive); the mix of calls is not that of the screen. Calls follow the shape of the dose curve; as a rule, active = well fitted inhibition curve with a large enough effect; inconclusive = small, poorly fitted or top-dose-only effect, or another doubt; inactive = no such curve, though single readings can be large or run the other way. Where the call is inconclusive, the potency comes from a doubtful curve fit.

test: Primary qHTS for delayed death inhibitors of the malarial parasite plastid, 96 hour incubation; settings: P. falciparum luciferase reporter growth; series mostly up to 28.7 µM
In short: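 P. falciparum expressing integrated firefly luciferase, in erythrocytes at 2% hematocrit, 0.05% parasitemia, incubated with compounds 96 h at 37 C, 5% CO2. Growth inhibition read as loss of luminescence; two-generation exposure targets delayed-death apicoplast inhibitors.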
Potency is read from the fitted curve at half-maximal effect.

SMILES	Potency
Cc1cc(C)c(N(C(=O)Cn2nnc3ccccc32)C(C(=O)NC(C)(C)C)c2ccsc2)c(C)c1 (configuration not stated)	inconclusive: 7.38 µM [inhibitor, partial curve]
CCOc1ccc(CN2CCN(Cc3cnn(CC)c3C)CC2CCO)cc1 (configuration not stated)	inconclusive: 0.0828 µM [inhibitor, full curve, poor fit]
CCOc1nc(Nc2ccccc2F)nc(OCC)n1	inconclusive: 9.28 µM [inhibitor, single point]
CCOc1ccc(C(=O)NCC(=O)OCc2cc(C(C)=O)ccc2OC)cc1	inactive
O=C(Nc1ccccc1Cl)c1ccc2nsnc2c1	inconclusive: 9.28 µM [inhibitor, single point]
Cc1nnc(N/N=C/c2ccccn2)[nH]c1=O	inconclusive: 9.28 µM [inhibitor, partial curve, poor fit]
O=C(Nc1ccccn1)c1ccc(Cl)c(S(=O)(=O)N2CCc3ccccc32)c1	inconclusive: 11.7 µM [inhibitor, single point]
Cc1cc(NC(=O)CSc2ccc3nnc(-c4cccs4)n3n2)no1	active: 2.33 µM
COc1ccc(CCNC(=O)c2c(N)no[n+]2[O-])cc1OC	inconclusive: 18.5 µM [inhibitor, single point]
O=C(O)CCC(=O)N1CC=C(c2ccccc2)CC1	inconclusive: 2.94 µM [inhibitor, full curve, poor fit]
COc1cc(NC(=O)COc2cccc(OC)c2)cc(OC)c1	active: 5.22 µM
O=C(Nc1cccc(-n2cnnn2)c1)c1ccc(C(F)(F)F)cc1	inconclusive: 1.17 µM [inhibitor, partial curve, poor fit]
CC1CN(C(=O)COc2ccc3ccccc3c2Br)CC(C)O1 (configuration not stated)	inconclusive: 18.5 µM [inhibitor, single point]
COCC(=O)NC1CCN(S(=O)(=O)c2cccc(C(C)=O)c2)CC1	inconclusive: 18.5 µM [inhibitor, partial curve, poor fit]
CC(C)(C)c1ccc(S(=O)(=O)N2CCCC2C(=O)NC2=NCCS2)cc1 (configuration not stated)	inconclusive: 0.208 µM [inhibitor, full curve, poor fit]
COc1nc(NCCC2=CCCCC2)nc(OC)n1	inconclusive: 9.28 µM [inhibitor, single point]
O=C(c1ccc(Br)o1)N1CCC(c2nc3ccccc3[nH]2)CC1	inconclusive: 18.5 µM [inhibitor, single point]
Cc1ccccc1Nc1nnc(SCC(=O)NC2CCCc3ccccc32)s1 (configuration not stated)	inconclusive: 1.31 µM [inhibitor, partial curve, poor fit]
COc1ccc(-c2nc(CS(=O)CC(=O)N3CCN(C)CC3)c(C)o2)cc1 (configuration not stated)	inactive
COc1ccc(CNC(=O)COC(=O)c2n[nH]c3ccccc23)cc1	inactive
CCOC(=O)N1CCN(c2ccc(S(=O)(=O)N3CCOCC3)cc2[N+](=O)[O-])CC1	inconclusive: 18.5 µM [inhibitor, single point]
N#Cc1nc(-c2ccc(OCc3ccccc3Cl)cc2)oc1NCCCn1ccnc1	inactive
COc1cccc(C2=CC(c3cccc(OC)c3OC(F)F)n3nnnc3N2)c1 (configuration not stated)	inactive

Quoted from the listing for reference:
SMILES	Potency
Cc1cc(NC(=O)CSc2ccc3nnc(-c4cccs4)n3n2)no1	active: 2.33 µM
COc1ccc(CCNC(=O)c2c(N)no[n+]2[O-])cc1OC	inconclusive: 18.5 µM [inhibitor, single point]
O=C(O)CCC(=O)N1CC=C(c2ccccc2)CC1	inconclusive: 2.94 µM [inhibitor, full curve, poor fit]
COc1cc(NC(=O)COc2cccc(OC)c2)cc(OC)c1	active: 5.22 µM

As entered above:
COc1ccc(CNC(=O)COC(=O)c2n[nH]c3ccccc23)cc1 – Potency: inactive
N#Cc1nc(-c2ccc(OCc3ccccc3Cl)cc2)oc1NCCCn1ccnc1 – Potency: inactive

Following part.

SMILES	Potency
Cc1ccc(-c2nc3ncccc3n2O)cc1	inactive
Cn1cc(/C=C(\NC(=O)c2ccccc2Cl)C(=O)NCCCn2ccnc2)c2ccccc21	inconclusive: 11.7 µM [inhibitor, single point]
N#Cc1ccc(CN2CCN(c3ccc(S(=O)(=O)N4CCCC4)cn3)CC2)cc1	inconclusive: 3.29 µM [inhibitor, full curve, poor fit]
O=C(NCCCN1CCOCC1)c1ccc(NC(=O)C2COc3ccccc3O2)cc1 (configuration not stated)	inconclusive: 11.7 µM [inhibitor, single point]
COc1ccc(CNC(=O)C2CC(=O)N(C3CCCCC3)C2)cc1 (configuration not stated)	inconclusive: 18.5 µM [inhibitor, single point]
COc1ccc(OC)c(NC(=O)CSc2nnc(Cn3nnc4ccccc43)n2C)c1	inactive
CN1C(=O)C(C)(C)c2cc(S(=O)(=O)N3CCC(C(=O)NCc4ccc(F)cc4)CC3)ccc21	active: 13.1 µM
CC[C@H]1OC(=O)C[C@@H](O)[C@H](C)[C@@H](O[C@@H]2O[C@H](C)C[C@H](N(C)C)[C@H]2O)[C@@H](CC=O)C[C@@H](C)C(=O)C=C[C@]2(C)O[C@H]2[C@@H]1C	active: 0.329 µM
Cc1ccc(NC(=O)CSc2nnc(Cc3cccn3C)n2-c2ccc(F)cc2)cc1	inconclusive: 18.5 µM [inhibitor, single point]
C/C(=N\NC(=O)c1ccn(C)n1)c1ccc(NC(=O)c2cccc(F)c2)cc1	inactive
Cc1ccc(C(=O)N2CCCCC2C(=O)O)o1 (configuration not stated)	inactive
Cc1ccc(S(=O)(=O)N2[C@@H](c3ccccc3)C(C(=O)O)=CC[C@H]2c2ccc3c(c2)OCO3)cc1	inconclusive: 18.5 µM [inhibitor, single point]
COc1ccc(N2C(=O)C3CCCN3C2c2cc(OC)c(OC)cc2OC)cc1 (configuration not stated)	inactive
Cc1ccnc(SCc2cc(=O)c(OC(=O)c3ccco3)co2)n1	inconclusive: 9.28 µM [inhibitor, single point]
COc1cccc(SCc2noc(C(=O)NC(C)C)c2C(=O)NC(C)C)c1	inconclusive: 13.1 µM [inhibitor, single point]
COc1ccc(S(=O)(=O)N2CCN(Cc3cc(=O)n4ccccc4n3)CC2)cc1	inconclusive: 18.5 µM [inhibitor, single point]
CN(C)S(=O)(=O)NC(c1ccccc1)c1ccccc1	inactive
Cc1cc(C)c(NC(=O)COc2cccnc2[N+](=O)[O-])c(C)c1	inconclusive: 18.5 µM [inhibitor, single point]
Cn1cnnc1Sc1ccc(C(=O)NCCC(c2ccccc2)c2ccccc2)cc1[N+](=O)[O-]	inconclusive: 14.7 µM [inhibitor, single point]
Oc1ccc2[nH]cc(CCCCN3CC=C(c4ccccc4)CC3)c2c1	active: 4.26 µM
COc1cc(/C=N/NC(=O)c2ccncc2)ccc1O	inconclusive: 3.7 µM [inhibitor, single point]
Nc1nonc1C(=Nc1ccccc1)NO	inconclusive: 0.104 µM [inhibitor, full curve, poor fit]
CCOC(=O)N1CCN(CC(=O)Nc2c(C(=O)OC)[nH]c3cccc(Cl)c23)CC1	inconclusive: 18.5 µM [inhibitor, single point]

SMILES	Potency
Cc1ccc(S(=O)(=O)c2cc(N3CCOCC3)nc(-c3ccccc3)n2)cc1	active: 8.28 µM
Cc1ccc(C2=NN(C(=O)C3CCCO3)C(c3ccco3)C2)cc1 (configuration not stated)	inconclusive: 2.94 µM [inhibitor, full curve, poor fit]
CCOc1ccccc1C(=O)Nc1cc(C(=O)NCCc2ccccc2)ccc1Cl	inconclusive: 9.28 µM [inhibitor, single point]
COc1cc(C(=O)NCCOc2ccc(C)c(C)c2)cc(OC)c1OC	inconclusive: 18.5 µM [inhibitor, single point]
CCc1ccc2nc(N(CCCN(C)C)C(=O)c3ccc4c(c3)OCCO4)sc2c1	inconclusive: 1.85 µM [inhibitor, partial curve, poor fit]
COc1cccc2cc(C(=O)C3=C(O)C(=O)N(CCN(C)C)C3c3ccc(Cl)cc3)oc12 (configuration not stated)	inactive
O=C(NC1CCC1)C1CCC(=O)N(Cc2ccccc2F)C1 (configuration not stated)	inconclusive: 18.5 µM [inhibitor, single point]
Cc1nn(C(=O)c2ccc([N+](=O)[O-])cc2)c(C)c1Br	inactive
CN1C(=O)c2ccc(C(=O)NCc3ccccn3)cc2C1=O	inconclusive: 14.7 µM [inhibitor, partial curve]
O=C(CSc1nnc(CN2CCCCC2)n1-c1ccccc1)c1ccc2c(c1)OCO2	inconclusive: 11.7 µM [inhibitor, partial curve]
COc1cc(OC)cc(C(=O)N[C@H](C(=O)OCC(N)=O)C(C)C)c1	inactive
CC1CC(C)(C)NC(=S)N1CCCC(=O)Nc1ccc(F)c(F)c1 (configuration not stated)	inconclusive: 8.28 µM [inhibitor, partial curve, poor fit]
Cc1cc(C)c(C(=O)CSc2nnc(-c3ccccc3Br)o2)cc1C	inconclusive: 4.65 µM [inhibitor, single point]
Cc1ccc(Cl)cc1-c1ccc(/C=N/n2cnnc2)o1	inconclusive: 11.7 µM [inhibitor, single point]
Cc1cc(C)c(S(=O)(=O)N2CCCCC2CCNC(=O)C(=O)NCc2ccccn2)c(C)c1 (configuration not stated)	inconclusive: 9.28 µM [inhibitor, single point]
COc1cc2c(cc1OC)C(C)N(C(=O)c1cc3c(=O)oc4ccc(C)cc4c3s1)CC2 (configuration not stated)	inconclusive: 6.57 µM [inhibitor, partial curve, poor fit]
Cc1ccccc1OCC(=O)NCCCNC(=O)c1ccccn1	inactive
CC(C)Cc1cc(CN2CCC(CO)(Cc3cccc(C(F)(F)F)c3)CC2)[nH]n1	inconclusive: 18.5 µM [inhibitor, single point]
CN(C)c1nc(-c2cccnc2)nc(-c2ccccc2)c1C#N	inconclusive: 10.4 µM [inhibitor, single point]
CN(C)CCC(c1ccc(Br)cc1)c1ccccn1 (configuration not stated)	inconclusive: 0.0828 µM [inhibitor, full curve]
CCN1CCN(CCCNC(=O)c2cc3c(=O)[nH]c4ccccc4c3s2)CC1	active: 10.4 µM

Part of the list above, field by field:
CN1C(=O)C(C)(C)c2cc(S(=O)(=O)N3CCC(C(=O)NCc4ccc(F)cc4)CC3)ccc21
  Potency: active: 13.1 µM
CCOc1ccccc1C(=O)Nc1cc(C(=O)NCCc2ccccc2)ccc1Cl
  Potency: inconclusive: 9.28 µM [inhibitor, single point]
